Assay results published in the supplement of paper PMC4962491.
Counter-ions that a name gives are not always drawn. ± gives the standard deviation of the averaged measurements. This is a selection; strong and weak results do not stand in their true shares. Repeats in this data set agree poorly, so a single value says little.

System: FaDu
Assay: mitochondrial oxygen consumption rate normalised to cell number, Z score over the library; higher = higher oxygen consumption (negative = OCR reduction)
Conditions: treatment time 24 h, assay medium: 5 mM galactose, 5 mM pyruvate, 4 mM glutamine
Procedure: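 Primary screen: FaDu cells were incubated 24 h with Pharmakon 1600 / TDI oncology set compounds at 2 or 10 uM. Mitochondrial-specific OCR (basal minus 2 uM antimycin A) was measured on a Seahorse XF96 in assay medium with 5 mM galactose, 5 mM pyruvate and 4 mM glutamine, then corrected for Hoechst cell number and expressed as a Z score […]. Compounds that cut cell number by >66% were excluded. Two repeats.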

| Structure (SMILES) | mitochondrial oxygen consumption rate normalised (2 µM) | mitochondrial oxygen consumption rate normalised (10 µM) |
| --- | --- | --- |
| CO[C@H]1C(=O)[C@]2(C)[C@@H](OC)C[C@H]3OC[C@@]3(OC(C)=O)[C@H]2[C@H](OC(=O)c2ccccc2)[C@]2(O)C[C@H](OC(=O)[C@H](O)[C@@H](NC(=O)OC(C)(C)C)c3ccccc3)C(C)=C1C2(C)C [Cabazitaxel] | 0.077 ± 0.35 | – |
| CCCC(C(=O)OCCN(CC)CC)(c1ccccc1)c1ccccc1 | -0.173 ± 0.27 | – |
| O=S(=O)(O)CCSSCCS(=O)(=O)O | 0.21 ± 0.91 | – |
| CN1CCC[C@H]1c1cccnc1 | 2.38 ± 1.2 | – |
| Cc1cc(CC(C)CC(C)(C)C)n(O)c(=O)c1 (stereo not given) | -3.459 ± 0.0059 | – |
| CCN(CC)C(=O)N1CCN(C)CC1 | -0.625 ± 1.5 | – |
| O=C(O)c1cc(O)c(O)c(O)c1 | -0.13 ± 0.095 | – |
| COc1ccc(-n2nc(CCC(=O)N(C)O)cc2-c2ccc(Cl)cc2)cc1 | 0.995 ± 0.43 | -0.88 ± 0.44 |
| O=P(O)(O)C(O)(Cc1cccnc1)P(=O)(O)O | 0.408 ± 1 | – |
| CC(=O)[C@H]1CC[C@H]2[C@@H]3CC=C4C[C@@H](OC(=O)CCC(=O)O)CC[C@]4(C)[C@H]3CC[C@]12C | -0.252 ± 0.4 | – |
| CC(CCc1ccc(O)cc1)NCC(O)c1ccc(O)cc1 (stereo not given) | 0.435 ± 0.4 | 0.0984 ± 0.26 |
| CCCCC(CC)COC(=O)c1ccccc1O (stereo not given) | -0.0197 ± 1 | – |
| CCN(CCCc1ccccc1)CCCc1ccccc1 | -0.426 ± 0.98 | – |
| CC[C@]1(O)C[C@@H]2CN(CCc3c([nH]c4ccccc34)[C@@](C(=O)OC)(c3cc4c(cc3OC)N(C)[C@H]3[C@@](O)(C(=O)OC)[C@H](OC(C)=O)[C@]5(CC)C=CCN6CC[C@]43[C@@H]65)C2)C1 | -0.342 ± 0.092 | – |
| CC[C@]1(O)C[C@@H]2CN(CCc3c([nH]c4ccccc34)[C@@](C(=O)OC)(c3cc4c(cc3OC)N(C)[C@H]3[C@@](O)(C(=O)OC)[C@H](OC(C)=O)[C@]5(CC)C=CCN6CC[C@]43[C@@H]65)C2)C1 [Vinblastine Sulfate] | 0.517 ± 0.36 | – |
| CC1=C(C(=O)O)N2C(=O)[C@@H](NC(=O)[C@H](N)c3ccc(O)cc3)[C@H]2SC1 | 0.281 ± 0.57 | – |
| CC(C)(Oc1ccc(C2CC2(Cl)Cl)cc1)C(=O)O (stereo not given) | -0.705 ± 0.13 | – |
| Nc1nccs1 | -0.934 ± 0.3 | – |
| NC(=O)c1cccnc1 | 0.99 ± 0.075 | – |
| CCCc1nc(C(C)(C)O)c(C(=O)OCc2oc(=O)oc2C)n1Cc1ccc(-c2ccccc2-c2nnn[nH]2)cc1 | 0.438 ± 1.2 | – |
| Cn1c(=O)c2c(ncn2CC(O)CO)n(C)c1=O (stereo not given) | -0.125 ± 0.56 | – |
| C=C(NC(=O)C(=C)NC(=O)c1csc(C2=N[C@@H]3c4csc(n4)[C@H]4NC(=O)c5csc(n5)[C@H]([C@](C)(O)[C@@H](C)O)NC(=O)[C@H]5CSC(=N5)/C(=C/C)NC(=O)[C@H]([C@@H](C)O)NC(=O)c5csc(n5)[C@]3(CC2)NC(=O)[C@H](C)NC(=O)C(=C)NC(=O)[C@H](C)NC(=O)[C@H]([C@@H](C)CC)N[C@@H]2C=Cc3c([C@H](C)O)cc(nc3[C@H]2O)C(=O)O[C@@H]4C)n1)C(N)=O | -0.9 ± 0.74 | – |

| Structure (SMILES) | mitochondrial oxygen consumption rate normalised (2 µM) | mitochondrial oxygen consumption rate normalised (10 µM) |
| --- | --- | --- |
| C[C@@H]1CC2C3C[C@H](F)C4=CC(=O)C=C[C@]4(C)[C@@]3(F)[C@@H](O)C[C@]2(C)[C@@]1(O)C(=O)COC(=O)C(C)(C)C (stereo not given in full) | -0.248 ± 0.37 | – |
| O=C(O)CCc1nc2ccccc2[nH]1 | 0.614 ± 0.81 | – |
| CCCCCCCCCCCCCCCC[N+](C)(C)C | -4.59 ± 0.28 | – |
| NC(=O)C1(N2CCCCC2)CCN(CCCC(=O)c2ccc(F)cc2)CC1 | -0.684 ± 0.17 | – |
| CNC1(C)C2CCC(C2)C1(C)C (stereo not given) | 0.723 ± 0.65 | – |
| CC[C@]12CCCN3CCc4c(n(c5ccccc45)[C@@](O)(C(=O)OC)C1)[C@@H]32 | 0.428 ± 0.86 | – |
| CCC(C)(C)c1ccc(CC(C)CN2C[C@@H](C)O[C@@H](C)C2)cc1 (stereo not given in full) | -0.57 ± 0.27 | – |
| CC1CCN(CCCC(=O)c2ccc(F)cc2)CC1 | -0.794 ± 0.38 | – |
| Nc1ccc(S(N)(=O)=O)cc1 | 0.749 ± 1.5 | – |
| CCOc1nc2cccc(C(=O)OC(C)OC(=O)OC3CCCCC3)c2n1Cc1ccc(-c2ccccc2-c2nn[nH]n2)cc1 (stereo not given) | 0.511 ± 1.1 | – |
| CC(CCc1ccc(O)cc1)NCCc1ccc(O)c(O)c1 (stereo not given) | -0.255 ± 0.81 | – |
| C#CC1(O)CC[C@H]2[C@@H]3CCC4=CC(=O)CC[C@@H]4[C@H]3CC[C@@]21CC (stereo not given in full) | 0.391 ± 0.065 | – |
| NC[C@H]1O[C@H](O[C@H]2[C@H](O)[C@@H](O[C@H]3O[C@H](CO)[C@@H](O)[C@H](N)[C@H]3O)[C@H](N)C[C@@H]2N)[C@H](N)[C@@H](O)[C@@H]1O | 0.0575 ± 0.058 | – |
| CC(=O)O[C@]1(C(C)=O)CC[C@H]2[C@@H]3C=C(C)C4=CC(=O)CC[C@]4(C)[C@H]3CC[C@@]21C | 0.922 ± 0.79 | – |
| CC(=O)O[C@]1(C(C)=O)CC[C@H]2[C@@H]3C=C(C)C4=CC(=O)CC[C@]4(C)[C@H]3CC[C@@]21C [Megestrol acetate] | 0.626 ± 0.38 | – |
| Cc1c(C)c2c(c(C)c1O)CCC(C)(CCCC(C)CCCC(C)CCCC(C)C)O2 (stereo not drawn) [alpha-TOCHOPHEROL] | 1.31 ± 0.98 | – |
| Nc1nc(=O)[nH]cc1F | 0.748 ± 0.51 | – |
| Nc1nnc(-c2cccc(Cl)c2Cl)c(N)n1 | 0.251 ± 0.031 | – |
| CC[C@@]1(O)C(=O)OCc2c1cc1n(c2=O)Cc2cc3c(CN(C)C)c(O)ccc3nc2-1 | – | -4.46 ± 0.19 |
| OCC(S)CS (stereo not given) | 0.371 ± 1.3 | – |
| O=C(c1cccnc1)N1CCOCC1 | 0.446 ± 1.1 | – |

Some of the entries so far, as labelled records.
CO[C@H]1C(=O)[C@]2(C)[C@@H](OC)C[C@H]3OC[C@@]3(OC(C)=O)[C@H]2[C@H](OC(=O)c2ccccc2)[C@]2(O)C[C@H](OC(=O)[C@H](O)[C@@H](NC(=O)OC(C)(C)C)c3ccccc3)C(C)=C1C2(C)C [Cabazitaxel]
  mitochondrial oxygen consumption rate normalised (2 µM): 0.077 ± 0.35
CCCC(C(=O)OCCN(CC)CC)(c1ccccc1)c1ccccc1
  mitochondrial oxygen consumption rate normalised (2 µM): -0.173 ± 0.27
O=S(=O)(O)CCSSCCS(=O)(=O)O
  mitochondrial oxygen consumption rate normalised (2 µM): 0.21 ± 0.91
CN1CCC[C@H]1c1cccnc1
  mitochondrial oxygen consumption rate normalised (2 µM): 2.38 ± 1.2
